The structures appear in SMILES notation. Structures can show the parent of a compound that is named as a salt. The list shows a part of the results. Repeats in this data set agree poorly, so a single value says little.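 Cells: ReNCell VM human fetal ventral-midbrain neural progenitors, differentiated mitogen-free. Blinded raters compared doublecortin-stained (early neurons) or tyrosine hydroxylase-stained (dopaminergic neurons) images with untreated wells, where 0 means no change. After repeats and both raters were averaged, compounds scoring 2 or above became hits for retesting.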

In assay [1] the test system is ReNCell VM. Briefly: neuronal differentiation score (DCX+ cell fraction vs untreated, manual image score) (score (-3 to 3)); higher = more neuronal differentiation. The conditions noted are these: 2 uM, 2 weeks.
The subject of assay [2] is ReNCell VM. Briefly: dopaminergic neuron differentiation score (TH+ cell fraction vs untreated, manual image score) (score (0 to 3)); higher = more TH+ dopaminergic neuron differentiation. The note with it: 2 uM, 4 weeks, BDNF 10 ng/ml + GDNF 10 ng/ml.

As to `O=C(O)c1ccc[n+]([O-])c1`, the neuronal differentiation score with ReNCell VM [1] (library: Spectrum) was inactive: 0. The “dopaminergic neuron differentiation score” value in the assay on ReNCell VM [2] (library: Spectrum) is inactive: 0.

For the compound `COc1ccc(Nc2ncnc3ccc(OC)cc23)cc1` [MPMQ hydrochloride], the neuronal differentiation score in the assay on ReNCell VM [1] (library: Tocriscreen) is inactive: 0. The “dopaminergic neuron differentiation score” value with ReNCell VM [2] (library: Tocriscreen) is inactive: 0.

For `CC(C)NNC(=O)c1ccncc1` [Iproniazide phosphate], the neuronal differentiation score in the assay on ReNCell VM [1] (library: Prestwick) was inactive: 0. Further, the “dopaminergic neuron differentiation score” value in the assay with ReNCell VM [2] (library: Prestwick) was inactive: 0.

On to `C[N+](C)(C)CCOP(=O)(O)OP(=O)([O-])OC[C@H]1O[C@@H](n2ccc(N)nc2=O)[C@H](O)[C@@H]1O`, for which the neuronal differentiation score in the assay on ReNCell VM [1] (library: Spectrum) was inactive: 1. Moreover, the “dopaminergic neuron differentiation score” value in the assay on ReNCell VM [2] (library: Spectrum) was inactive: 0.

As for `CCN(CC)CCOC(=O)C(c1ccccc1)C1CCCCC1` (stereo not drawn), in the assay with ReNCell VM [1] (library: Spectrum), the neuronal differentiation score is inactive: 0. The “dopaminergic neuron differentiation score” value with ReNCell VM [2] (library: Spectrum) is inactive: 0.

With `CCN(CC)CCCC(C)Nc1c2ccc(Cl)cc2nc2ccc(OC)cc12` (stereo not drawn), the neuronal differentiation score in the assay with ReNCell VM [1] (library: Spectrum) was inactive: 0. Besides, the “dopaminergic neuron differentiation score” value in the assay on ReNCell VM [2] (library: Spectrum) was inactive: 0.

For the compound `COc1cc(NS(=O)(=O)c2ccc(N)cc2)nc(OC)n1` [Sulfadimethoxine], the neuronal differentiation score in the assay on ReNCell VM [1] (library: Prestwick) was inactive: 0. Further, the “dopaminergic neuron differentiation score” value in the assay with ReNCell VM [2] (library: Prestwick) is inactive: 0.

On to `CC1(C)S[C@@H]2[C@H](NC(=O)[C@H](N)c3ccc(O)cc3)C(=O)N2[C@H]1C(=O)O`, for which the neuronal differentiation score in the assay on ReNCell VM [1] (library: Spectrum) is inactive: 0. In the assay with ReNCell VM [2] (library: Spectrum), the “dopaminergic neuron differentiation score” value was inactive: 0.

On to `C[C@@H]1CN(CCCn2c3ccccc3c3ccccc32)C[C@H](C)N1` [Rimcazole dihydrochloride], for which, in the assay with ReNCell VM [1] (library: Tocriscreen), the neuronal differentiation score was inactive: 0. Also, the “dopaminergic neuron differentiation score” value with ReNCell VM [2] (library: Tocriscreen) was inactive: 0.

As for `COc1ccc(C(=O)N(O)c2ccccc2)cc1` [n-hydroxy-4-methoxy-n-phenylbenzamide], in the assay on ReNCell VM [1] (library: Natural), the neuronal differentiation score was inactive: 0. Further, in the assay with ReNCell VM [2] (library: Natural), the “dopaminergic neuron differentiation score” value is inactive: 0.

For `NCCCCCC(=O)O`, in the assay on ReNCell VM [1] (library: Spectrum), the neuronal differentiation score is inactive: 0. In addition, in the assay on ReNCell VM [2] (library: Spectrum), the “dopaminergic neuron differentiation score” value is inactive: 0.

For the compound `C#C[C@]1(OC(C)=O)CC[C@H]2[C@@H]3CCC4=CC(=NO)CC[C@@H]4[C@H]3CC[C@@]21CC` (mixture of isomers) [Norgestimate], the neuronal differentiation score with ReNCell VM [1] (library: Prestwick) was inactive: 0. In the assay on ReNCell VM [2] (library: Prestwick), the “dopaminergic neuron differentiation score” value is inactive: 0.

For the compound `CC(C)(C(=O)c1cccnc1)c1cccnc1` [Metyrapone], the neuronal differentiation score in the assay on ReNCell VM [1] (library: Prestwick) was inactive: 0. Besides, the “dopaminergic neuron differentiation score” value in the assay on ReNCell VM [2] (library: Prestwick) is inactive: 0.

On to `CN(C)[C@@H]1C(O)=C(C(N)=O)C(=O)[C@@]2(O)C(O)=C3C(=O)c4c(O)cccc4[C@@](C)(O)[C@H]3C[C@@H]12` [Tetracycline hydrochloride], for which the neuronal differentiation score in the assay with ReNCell VM [1] (library: Prestwick) is inactive: 1. Moreover, the “dopaminergic neuron differentiation score” value in the assay on ReNCell VM [2] (library: Prestwick) is inactive: 0.

`COc1c2occc2c(OC)c2c(=O)cc(C)oc12`: the neuronal differentiation score in the assay with ReNCell VM [1] (library: Spectrum) is inactive: 0. In addition, the “dopaminergic neuron differentiation score” value in the assay with ReNCell VM [2] (library: Spectrum) was inactive: 0.

`Cc1cc(O)c2c(c1)C(=O)c1cccc(O)c1C2=O`: in the assay on ReNCell VM [1] (library: Spectrum), the neuronal differentiation score is inactive: 0. The “dopaminergic neuron differentiation score” value in the assay with ReNCell VM [2] (library: Spectrum) was inactive: 0.

With `Clc1ccc(C(c2ccccc2Cl)C(Cl)Cl)cc1` (stereo not drawn) [Mitotane], the neuronal differentiation score with ReNCell VM [1] (library: Prestwick) was inactive: 0. Moreover, the “dopaminergic neuron differentiation score” value with ReNCell VM [2] (library: Prestwick) was inactive: 0.

For the compound `C#C[C@]1(O)CC[C@H]2[C@@H]3CCC4=CC(=O)CC[C@@H]4[C@H]3CC[C@@]21C` [Norethindrone], the neuronal differentiation score with ReNCell VM [1] (library: Prestwick) was inactive: 0. For the same compound, the “dopaminergic neuron differentiation score” value with ReNCell VM [2] (library: Prestwick) is inactive: 0.

As to `O=C(O)P(=O)(O)O`, the neuronal differentiation score in the assay with ReNCell VM [1] (library: Spectrum) is inactive: 0. Besides, in the assay on ReNCell VM [2] (library: Spectrum), the “dopaminergic neuron differentiation score” value is inactive: 0.

On to `N=C(N)N`, for which the neuronal differentiation score with ReNCell VM [1] (library: Spectrum) was inactive: 0. For the same compound, the “dopaminergic neuron differentiation score” value with ReNCell VM [2] (library: Spectrum) is inactive: 0.

Take `C/C(=C\C(=O)OCCCCCCCCC(=O)O)C[C@@H]1OC[C@H](C[C@@H]2O[C@H]2[C@@H](C)[C@H](C)O)[C@@H](O)[C@H]1O`: in the assay on ReNCell VM [1] (library: Spectrum), the neuronal differentiation score was inactive: 0. Also, in the assay on ReNCell VM [2] (library: Spectrum), the “dopaminergic neuron differentiation score” value was inactive: 0.

On to `Cn1cccc1/C=C1\C(=O)NC(=O)c2ccccc21`, for which the neuronal differentiation score in the assay with ReNCell VM [1] (library: Tocriscreen) is inactive: 0. For the same compound, the “dopaminergic neuron differentiation score” value in the assay with ReNCell VM [2] (library: Tocriscreen) is inactive: 0.

Turning to `C[C@@H]1O[C@@H](OC[C@H]2O[C@@H](Oc3c(-c4ccc(OCCO)c(OCCO)c4)oc4cc(OCCO)cc(O)c4c3=O)[C@H](O)[C@@H](O)[C@@H]2O)[C@H](O)[C@H](O)[C@H]1O`, the neuronal differentiation score in the assay on ReNCell VM [1] (library: Spectrum) is inactive: 0. In the assay on ReNCell VM [2] (library: Spectrum), the “dopaminergic neuron differentiation score” value is inactive: 0.

As to `Oc1ccccc1O` [Pyrocatechol], in the assay on ReNCell VM [1] (library: LOPAC), the neuronal differentiation score is active: 3. In the assay on ReNCell VM [2] (library: LOPAC), the “dopaminergic neuron differentiation score” value was inactive: 0.

Regarding `CC(=Nc1ccccc1N)c1c(C)cc(=O)n(O)c1O`, the neuronal differentiation score in the assay with ReNCell VM [1] (library: Tocriscreen) was inactive: 0. Besides, in the assay with ReNCell VM [2] (library: Tocriscreen), the “dopaminergic neuron differentiation score” value was inactive: 0.

Consider `S=C1SCN(Cc2ccccc2)CN1Cc1ccccc1`, for which the neuronal differentiation score in the assay with ReNCell VM [1] (library: Spectrum) is inactive: 0. Besides, the “dopaminergic neuron differentiation score” value with ReNCell VM [2] (library: Spectrum) is inactive: 0.

`CC(=O)NCCc1c[nH]c2ccc(O)cc12` [N-Acetyl-5-hydroxytryptamine]: in the assay on ReNCell VM [1] (library: LOPAC), the neuronal differentiation score was inactive: 0. Further, in the assay with ReNCell VM [2] (library: LOPAC), the “dopaminergic neuron differentiation score” value is inactive: 0.

Consider `CN(C)CCCN1c2ccccc2Sc2ccccc21`, for which, in the assay on ReNCell VM [1] (library: Spectrum), the neuronal differentiation score was inactive: 0. For the same compound, the “dopaminergic neuron differentiation score” value in the assay on ReNCell VM [2] (library: Spectrum) was inactive: 0.

`CC(CN(C)C)CN1c2ccccc2CCc2ccccc21` (stereo not drawn) [Trimipramine maleate]: in the assay with ReNCell VM [1] (library: LOPAC), the neuronal differentiation score was inactive: 0. Also, in the assay with ReNCell VM [2] (library: LOPAC), the “dopaminergic neuron differentiation score” value was inactive: 0.

On to `COc1ccc(-c2oc3cc(OC)ccc3c2C(=O)c2ccc(C#N)cc2)cc1`, for which the neuronal differentiation score with ReNCell VM [1] (library: Tocriscreen) is inactive: 0. Further, the “dopaminergic neuron differentiation score” value with ReNCell VM [2] (library: Tocriscreen) is inactive: 0.

Turning to `CNC(C)CCC=C(C)C` (stereo not drawn) [Isometheptene mucate], the neuronal differentiation score with ReNCell VM [1] (library: Prestwick) is inactive: 0. For the same compound, in the assay with ReNCell VM [2] (library: Prestwick), the “dopaminergic neuron differentiation score” value is inactive: 0.

Regarding `O=S(=O)(O)c1cc(O)ccc1O` [Ethamsylate], the neuronal differentiation score with ReNCell VM [1] (library: Prestwick) was inactive: 0. For the same compound, in the assay on ReNCell VM [2] (library: Prestwick), the “dopaminergic neuron differentiation score” value is inactive: 0.

Consider `CCCCCCCC/C=C\CCCCCCCC(=O)N[C@@H](CO)Cc1ccc(O)cc1`, for which, in the assay with ReNCell VM [1] (library: Tocriscreen), the neuronal differentiation score was inactive: 0. Moreover, in the assay with ReNCell VM [2] (library: Tocriscreen), the “dopaminergic neuron differentiation score” value was inactive: 0.

`CCN1CCCC1CNC(=O)c1cc(S(N)(=O)=O)ccc1OC` (stereo not drawn): the neuronal differentiation score in the assay on ReNCell VM [1] (library: Spectrum) was inactive: 0. In addition, the “dopaminergic neuron differentiation score” value in the assay on ReNCell VM [2] (library: Spectrum) was inactive: 0.

The record behind these values is the supplement of paper PMC4635364.
